Common to all, as to test: affinity purification with mass spectrometry
The target of experiment [1] is T1, Cys293S mutated GCN5-GFP from pGCN5::GCN5(GCN5C293S)-GFP(gcn5) plants (Arabidopsis thaliana) (UniProt Q9AR19).
T1 sequence: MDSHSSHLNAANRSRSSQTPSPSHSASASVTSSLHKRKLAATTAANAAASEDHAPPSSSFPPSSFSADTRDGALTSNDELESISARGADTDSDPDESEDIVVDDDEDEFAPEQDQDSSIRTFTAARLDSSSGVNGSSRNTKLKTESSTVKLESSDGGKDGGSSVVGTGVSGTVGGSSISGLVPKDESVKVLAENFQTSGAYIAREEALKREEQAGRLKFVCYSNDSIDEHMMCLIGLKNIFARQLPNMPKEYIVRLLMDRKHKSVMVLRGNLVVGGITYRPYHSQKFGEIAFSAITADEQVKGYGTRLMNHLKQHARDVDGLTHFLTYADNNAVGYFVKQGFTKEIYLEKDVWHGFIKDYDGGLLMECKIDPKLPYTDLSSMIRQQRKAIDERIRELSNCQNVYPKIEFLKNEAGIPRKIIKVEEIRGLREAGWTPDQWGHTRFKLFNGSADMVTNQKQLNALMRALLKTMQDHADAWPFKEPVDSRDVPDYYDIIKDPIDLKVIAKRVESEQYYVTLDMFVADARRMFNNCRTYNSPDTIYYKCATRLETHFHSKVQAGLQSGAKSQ

The target of experiment [2] is T2, wild type GCN5-GFP from pGCN5::GCN5(GCN5wt)-GFP(gcn5) plants (Arabidopsis thaliana) (UniProt Q9AR19).
T2 sequence: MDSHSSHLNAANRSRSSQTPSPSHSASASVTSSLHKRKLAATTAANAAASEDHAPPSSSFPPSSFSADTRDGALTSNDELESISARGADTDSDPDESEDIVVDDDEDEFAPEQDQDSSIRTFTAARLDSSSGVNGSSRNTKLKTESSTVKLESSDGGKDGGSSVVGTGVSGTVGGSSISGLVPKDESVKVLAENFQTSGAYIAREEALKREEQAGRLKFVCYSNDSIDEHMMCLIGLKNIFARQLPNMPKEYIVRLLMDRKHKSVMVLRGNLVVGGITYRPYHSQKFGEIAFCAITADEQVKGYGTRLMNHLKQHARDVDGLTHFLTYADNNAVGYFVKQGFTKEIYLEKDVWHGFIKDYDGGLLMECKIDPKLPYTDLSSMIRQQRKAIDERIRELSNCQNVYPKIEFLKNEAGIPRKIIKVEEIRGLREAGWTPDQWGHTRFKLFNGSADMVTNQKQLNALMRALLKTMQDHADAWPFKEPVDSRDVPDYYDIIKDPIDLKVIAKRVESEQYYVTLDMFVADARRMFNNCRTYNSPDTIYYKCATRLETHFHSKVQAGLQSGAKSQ

Experiment [3] deals with T1, Cys293S mutated GCN5-GFP from pGCN5::GCN5(GCN5C293S)-GFP(gcn5) plants (Arabidopsis thaliana). The source holds these as a separate data set.

Where two headings read alike, the source gives them in different places. These are yes or no findings as the source states them, for the method shown. Binding seen in cells or lysates may run through a third protein. Here binding means that the protein was enriched with, or labelled near, the bait; the list need not be complete. For part of these data: No binding means not detected with the bait. Tags and fused reporters may be left off the sequences shown.

EAF6: in experiment [1], the binding result is given as “no binding”. Same read-out and setting: the result for SDRL reads “no binding”.

B1: ADA2A (protein, UniProt Q9SFD5 1-548)
chain: MGRSKLASRPAEEDLNPGKSKRKKISLGPENAAASISTGIEAGNERKPGLYCCNYCDKDLSGLVRFKCAVCMDFDLCVECFSVGVELNRHKNSHPYRVMDNLSFSLVTSDWNADEEILLLEAIATYGFGNWKEVADHVGSKTTTECIKHFNSAYMQSPCFPLPDLSHTIGKSKDELLAMSKDSAVKTEIPAFVRLSPKEELPVSAEIKHEASGKVNEIDPPLSALAGVKKKGNVPQAKDIIKLEAAKQQSDRSVGEKKLRLPGEKVPLVTELYGYNLKREEFEIEHDNDAEQLLADMEFKDSDTDAEREQKLQVLRIYSKRLDERKRRKEFVLERNLLYPDQYEMSLSAEERKIYKSCKVFARFQSKEEHKELIKKVIEEHQILRRIEDLQEARTAGCRTTSDANRFIEEKRKKEAEESMLLRLNHGAPGSIAGKTLKSPRGLPRNLHPFGSDSLPKVTPPRIYSGLDTWDVDGLLGADLLSETEKKMCNETRILPVHYLKMLDILTREIKKGQIKKKSDAYSFFKVEPSKVDRVYDMLVHKGIGDST
In the case of B1, the binding entry in experiment [2] and in experiment [3] was “binds” throughout.

B2: ADA2B (protein, UniProt Q9ATB4 1-487)
chain: MGRSRGNFQNFEDPTQRTRKKKNAANVENFESTSLVPGAEGGGKYNCDYCQKDITGKIRIKCAVCPDFDLCIECMSVGAEITPHKCDHPYRVMGNLTFPLICPDWSADDEMLLLEGLEIYGLGNWAEVAEHVGTKSKEQCLEHYRNIYLNSPFFPLPDMSHVAGKNRKELQAMAKGRIDDKKAEQNMKEEYPFSPPKVKVEDTQKESFVDRSFGGKKPVSTSVNNSLVELSNYNQKREEFDPEYDNDAEQLLAEMEFKENDTPEEHELKLRVLRIYSKRLDERKRRKEFIIERNLLYPNPFEKDLSQEEKVQCRRLDVFMRFHSKEEHDELLRNVVSEYRMVKRLKDLKEAQVAGCRSTAEAERYLGRKRKRENEEGMNRGKESGQFGQIAGEMGSRPPVQASSSYVNDLDLIGFTESQLLSESEKRLCSEVKLVPPVYLQMQQVMSHEIFKGNVTKKSDAYSLFKIDPTKVDRVYDMLVKKGIAQL
Take B2: the binding result in experiment [2] and in experiment [3] was “binds” in each case.

The values above are taken from article doi:10.1101/2024.04.24.590918.
